From PubChem BioAssay AID1259415 (National Center for Advancing Translational Sciences (NCATS), 2018)
Screen size: about 410,000 compounds; about 18,000 (4.4%) were called active. This list was built around the results that the source calls inconclusive (neither active nor inactive); the mix of calls is not that of the screen. No stated cut-off is given here; in the data, active means activity change below about -60%; inconclusive means no clear call, values can overlap the other calls; inactive means above about -39%.

Experiment: qHTS Assay for inhibitors of the human cytomegalovirus (HCMV)
Conditions: HFF cells, HCMV-luciferase reporter, 72 h; at 57.5 µM; active compounds read low
Method in brief: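 Screen run at 2 compound doses on HFFs infected with reporter HCMV, MOI 1 PFU/cell. Luciferase activity from cell lysates at 72 h post infection gave inhibition relative to buffer-only and Salinomycin wells.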
On the % scale 0 is the no-effect control and ±100 the full control effect.

Compound	activity change, negative = inhibition
COc1ccc(CCNC(=O)c2ccc3c(c2)CCN3S(=O)(=O)c2ccccc2)cc1	inconclusive: -51.9%
Cc1ccc(CNC(=O)CSCc2ccccc2C)cc1	inconclusive: 0%
O=S(=O)(c1ccc(C2CCCCC2)cc1)N1CCN(c2cc(Cl)ccc2Cl)CC1	inactive: 7.77%
CC(C)c1cc(C(=O)N/N=C/c2cccnc2)cs1	inconclusive: -57.6%
COc1ccccc1NC(=O)CSc1nc2n[nH]c(C)c2c(=N)n1-c1ccccc1Cl	inactive: -6.77%
O=C1NC(=O)c2cc(NC(=O)c3cccc4ccccc34)ccc21	active: -84.9%
CCOc1ccccc1CNC(=O)CCN1C(=O)COc2ccccc21	inactive: 39%
O=C(CCl)Nc1cc(-c2ccccc2)nn1-c1ccccc1	active: -87.3%
CC(C)OCCCN1CC(=O)N2[C@@H](Cc3c([nH]c4ccccc34)C2(C)C)C1=O	inconclusive: -48.4%
CN(C(=O)CSc1nc2ccc(NC(=O)c3cccc(F)c3)cc2s1)c1ccccc1	active: -74.6%
Cc1cc(C)n(-c2ccc(C(=O)Nc3ccc(S(=O)(=O)N(C)C)cc3)cc2)n1	active: -97.2%
COc1ccc(CCN(C)c2ccc(S(=O)(=O)N3CCCC3)cc2[N+](=O)[O-])cc1OC	inconclusive: -41.6%
CCOC(=O)N1CCN(C(=O)c2ccc3c(c2)N(C)C(=O)/C(=C\c2ccc(OCC)c(OC)c2)S3)CC1	inconclusive: -58.6%
CN(C)C(=S)Nc1ccc2c(c1)OCO2	inconclusive: -44.5%
Cc1cnc(NC(=O)c2cc3c(C)nn(-c4ccccc4)c3s2)s1	inactive: 33.2%
COc1ccc(Cn2c(C(=O)O)c(CNCc3ccc(OC)cc3OC)c3ccc(C)cc32)cc1	inconclusive: -56.1%
COc1ccc(NC(=O)CSCc2cc(=O)c3cc(C)ccc3[nH]2)cc1	inactive: 0.112%
Cc1[nH]c2ccc(F)cc2c1CCNC(=O)C1CCCCC1C(=O)OCC(F)(F)F (stereo not given)	inconclusive: -48.2%
COc1ccc(NCc2nnc(-c3ccccc3)o2)cc1	inactive: 0%
CCCNC(=O)c1cc2cc([N+](=O)[O-])ccc2s1	inconclusive: -40.2%
CN(C)S(=O)(=O)Oc1ccccc1C(=O)Nc1ccccc1Cl	inconclusive: -54.4%
O=C(CCc1ccc(CCC(=O)c2cccs2)s1)c1cccs1	inactive: 69.4%

Part of the list above, set out differently.
Compound,"activity change, negative = inhibition"
COc1ccc(NC(=O)CSCc2cc(=O)c3cc(C)ccc3[nH]2)cc1,inactive: 0.112%
Cc1[nH]c2ccc(F)cc2c1CCNC(=O)C1CCCCC1C(=O)OCC(F)(F)F (stereo not given),inconclusive: -48.2%
COc1ccc(NCc2nnc(-c3ccccc3)o2)cc1,inactive: 0%

Gathered by group, the entries above with a nitro group on carbon (two)
Compound	activity change, negative = inhibition
COc1ccc(CCN(C)c2ccc(S(=O)(=O)N3CCCC3)cc2[N+](=O)[O-])cc1OC	inconclusive: -41.6%
CCCNC(=O)c1cc2cc([N+](=O)[O-])ccc2s1	inconclusive: -40.2%

Following part:

Compound	activity change, negative = inhibition
CCc1ccccc1-n1nnc(-c2ccccc2)n1	inconclusive: -58.2%
Cc1cccc(N2CCN(Cc3cc(=O)n4ccsc4n3)CC2)c1C	inconclusive: -45%
O=C(C[n+]1cccc(Br)c1)c1ccc(-c2ccccc2)cc1	active: -74.4%
COc1ccc(CCNC(=O)C(=O)NCC2OCCN2C(=O)c2ccc(Cl)cc2)cc1OC (stereo not given)	inconclusive: -46.4%
COc1cccc(CNC(=O)CN2c3cccc4cccc(c34)S2(=O)=O)c1	active: -88.3%
CCOc1ccc(NC(=O)CSc2nc3c(c(=O)n2C)SC(C)C3)cc1 (stereo not given)	inconclusive: -41.9%
CCN1CCCC1CNC(=O)c1ccc(Sc2ccccc2Cl)c([N+](=O)[O-])c1 (stereo not given)	inconclusive: -40.9%
COC(=O)c1ccccc1NC(=O)C(C)n1nc(C)c2c(C)n(-c3ccccc3)nc2c1=O (stereo not given)	inconclusive: -42.2%
COc1ccc(Cn2ccnc2SCC(=O)Nc2ccc3c(c2)OCCO3)cc1	inactive: 3.68%
CCCC1(CCC)NC(=O)N(CC(=O)Nc2ccc3c(c2)OCCO3)C1=O	inactive: 15.2%
CCOC(=O)c1c(NC(C)=O)c2c3c(sc2n1Cc1c(C)cc(C)cc1C)CCCC3	active: -73.8%
Cc1ccccc1-c1nn(-c2ccc(F)cc2F)cc1CNC1CC1	inactive: 3.96%
COc1cccc(C(=O)N[C@@H](Cc2cccnc2)C(=O)N2CCC[C@H]2C(=O)NCCc2ccccc2Cl)c1	inactive: -32.5%
CN=c1scc(-c2ccc(F)cc2)n1/N=C/c1ccc(O)c(O)c1	active: -66.6%
O=C(c1[nH]ncc1-c1ccc(Cl)cc1)C1CO1 (stereo not given)	active: -78.7%
O=C(Nc1cccc(S(=O)(=O)N2CCOCC2)c1)c1ccc2c(=O)n3c(nc2c1)CCCCC3	active: -84%
COc1cccc(/C=C2/Sc3ccc(C(=O)NCCN4CCCCCC4)cc3NC2=O)c1	active: -69.9%
CCOC(=O)C1CCCN(S(=O)(=O)c2cnc(Cl)c(Br)c2)C1 (stereo not given)	inconclusive: -43.8%
C[C@@]12C(=O)N(c3ccccc3)C(=O)N1[C@@H]1c3ccccc3OC[C@@H]1[C@H]2c1ccccc1	inconclusive: -54.1%
O=C(COC(=O)CSc1nnc(-c2ccc(Cl)cc2)o1)NCc1ccc2c(c1)OCO2	inconclusive: -41.2%
C/C(=C\c1ccccc1)C(=O)Nc1nccs1	inconclusive: -41.2%
c1ccc(COC2CCCN(Cc3nc(Cc4ccccc4)no3)C2)cc1 (stereo not given)	inconclusive: -47%

Compound	activity change, negative = inhibition
Cc1cc(C(=O)NC2CC(C)(C)Cc3c2cnn3-c2ccccc2C)c(C)o1 (stereo not given)	inconclusive: -47.9%
CN(C)c1nc(-c2ccc([N+](=O)[O-])cc2)cs1	inconclusive: -42.8%
CCOc1ccc(C2C(=O)N(C3CCCCCC3)CC(=O)N2Cc2ccc(C)cc2)cc1OC (stereo not given)	inconclusive: -42.1%
CCc1cc2c(SCC#N)ncnc2s1	inconclusive: -49%
O=C(c1ccccc1F)N1CCN(c2ccc([N+](=O)[O-])c(NCc3cccnc3)c2)CC1	inconclusive: -41.9%
COc1ccc(C(C(=O)Nc2ccc3c(c2)OCCO3)n2c(=O)c(-c3ccco3)nc3ccccc32)cc1 (stereo not given)	inactive: 49.9%
CCN(CC(=O)Nc1ccc(NC(C)=O)cc1)C(=O)C1CCN(C(=O)c2ccccc2C)CC1	inactive: 0.638%
Cc1c(Cl)cccc1NC(=S)NCc1ccco1	inconclusive: -49.7%
CCC(=O)NC(=S)Nc1ccc(Cl)cn1	inconclusive: -42.3%
Cc1cc(Nc2nc3ccccc3nc2Cl)n(-c2ccccc2C)n1	inconclusive: -53%
COC(=O)c1ccccc1NC(=O)CN1CCC(C(=O)c2ccc3c(c2)OCCO3)CC1	inactive: -24.6%
N#Cc1ccc(Oc2nc(C#N)cc(-c3ccccc3)n2)cc1	inconclusive: -54%
Cc1c(C(c2ccc(C(=O)O)cc2)c2c(C)n(C)n(-c3ccccc3)c2=O)c(=O)n(-c2ccccc2)n1C	inactive: 9.18%
Cc1[nH]c2ccccc2c1C(=O)C(=O)N1c2ccccc2CC1C (stereo not given)	active: -61.8%
O=C1N/C(=N\c2ccccn2)SC1Cc1ccccc1Cl (stereo not given)	inactive: -11.7%
CC(C)c1c(C(=O)N/N=C/c2ccc(C(F)(F)F)cc2)nnn1-c1nonc1N	inconclusive: -43%
CN(CCNC(=O)c1cn(C)c2ccc(S(=O)(=O)N3CCCC3)cc2c1=O)CCc1ccccc1	inconclusive: -45.5%
CN(C)c1ccc(O)c2c1CC1CC3C(N(C)C)C(=O)C(C(N)=O)=C(O)[C@@]3(O)C(=O)C1=C2O (stereo not given in full)	inactive: -22.3%
Cn1cc(Cl)c(-c2n[nH]c(=S)n2C2CCCCC2)n1	inactive: -10.4%
COc1ccc(COc2ccccc2C(=O)NCc2ccccc2)cc1F	active: -69.2%
COc1ccc(/C(O)=C2/C(=O)C(=O)N(CCN3CCOCC3)C2c2ccc(C)cc2)cc1 (stereo not given)	inconclusive: -41.4%
CCC(=O)N1CCc2cc(S(=O)(=O)NCCC(=O)N3CCN(c4cccc(OC)c4)CC3)ccc21	inconclusive: -40.5%

Compound	activity change, negative = inhibition
O=C(c1cc(Br)ccc1Cl)N1CCN(c2ccc(N3CCOCC3)nn2)CC1	inconclusive: -41%
CCOc1cccc2cc(-c3nc(-c4ccccc4C)no3)c(=O)oc12	inconclusive: -55.5%
Cc1cccc(N2CCN(C(=O)CCN3C(=S)NC(C)(C)CC3C)CC2)c1C (stereo not given)	inconclusive: -44.9%
COc1c(C)cc(C(=O)C2CCCN(Cc3cccc4nccnc34)C2)cc1C (stereo not given)	inconclusive: -54.8%
CC(=O)C(Cc1ccccc1)NC(=O)CN1CCc2ccccc2C1 (stereo not given)	inconclusive: -52.5%
CCN(CC)CCOc1ccc2c(c1)C(=O)c1cc(OCCN(CC)CC)ccc1-2	inconclusive: -40%
CN(C)c1ccc(CN(C(=O)/C=C/c2ccco2)C2CCS(=O)(=O)C2)cc1 (stereo not given)	inactive: 3.87%
CCN(Cc1ccccc1)C(=O)CCS(=O)(=O)c1ccc2c(c1)n(C)c(=O)c(=O)n2C	inconclusive: -40.4%
OCC[C@H]1C[C@@H](O)[C@H](O)[C@]2(Cc3ccccc3CO2)O1	inactive: -26.1%
CCn1c(N)c(C(=O)NCc2ccco2)sc1=S	inconclusive: -51.3%
Cc1c(NC(=O)Cc2ccccc2)cccc1C(=O)NN1C(=O)c2ccccc2C1=O	inconclusive: -46.6%
COc1ccc(CN(C)C(=O)c2ccc(NS(=O)(=O)c3ccc(C)c([N+](=O)[O-])c3)cc2)c(OC)c1OC	inconclusive: -41.1%
COc1ccccc1Nc1nc(-c2cccc(N3C(=O)c4ccccc4C3=O)c2)cs1	inactive: -34.4%
CCC(C)NS(=O)(=O)c1ccc(OCC(=O)Nc2ccc(F)cc2F)cc1 (stereo not given)	inconclusive: -44.1%
COc1ccc(NS(=O)(=O)c2cc3[nH]c(=O)c(=O)[nH]c3cc2C)cc1Cl	inactive: 2.44%
CCOc1cc(/C=C/C(=O)c2ccc(O)cc2)ccc1OCC(=O)N(C)C	inconclusive: -48.7%
CC(C)CC1NC(=O)N(CC(=O)Nc2cc(S(=O)(=O)N3CCOCC3)ccc2Cl)C1=O (stereo not given)	inactive: -3.58%
CC1=C(C(=O)N2CCCCC2)C(c2cccs2)C2=C(CCCC2=O)N1 (stereo not given)	inconclusive: -41.3%
CCOc1ccc(/C=C/c2nc(C#N)c(N3CCN(c4ccc(OC)cc4)CC3)o2)cc1	inactive: -32.2%
